Among the data in PubChem BioAssay AID228 (DTP/NCI, 2004) are T/C values, retold here.

The list shows only some results of the screen, not a fair sample: it gathers some chemical classes. Not every dose and run of a compound is shown. T/C gives the treated animals as a percentage of the vehicle group. Schedule codes are those of the source, taken here to give the interval after Q, in days (D) or hours (H), and the number of doses after X. Some T/C values are marked as having no survivor count here; that says nothing about deaths at the dose. Some T/C values are followed by the survivors on the day toxicity was checked; without a count or a note in brackets, all were alive then.

The assay has as its system BDF1 mice, Friend leukemia sc, tumor weight T/C. Kind of assay: NCI In Vivo Anticancer Drug Screen. Data for tumor model Friend Virus Leukemia (Solid) (subcutaneous) in B6D2F1 (BDF1) mice. To be noted: T/C endpoint: mean tumor weight, schedule: Q01DX011 (ip), higher T/C = larger tumour. How it is done:
The antitumor activity of compounds was measured in mice bearing transplantable tumors. Survival or tumor size were measured and the results are expressed as the measurement made in the treated group (T) divided by the measurement made in the vehicle treated control group (C). The tumor model used in this assay is Friend Virus Leukemia (Solid) (subcutaneous) in B6D2F1 (BDF1) mice

The mark [1] stands for this setting: dose: 1.0 mg/kg/injection, vehicle: saline, evaluated on day 12.
[2] abbreviates: dose: 2.0 mg/kg/injection, vehicle: saline, evaluated on day 12.

As for `CN(N=O)C(=N)N[N+](=O)[O-]`, the T/C (dose: 10.0 mg/kg/injection, vehicle: carboxymethylcellulose (CMC), evaluated on day 12) was 113 % of control.
Regarding `OC(CNCCCl)C(O)C(O)C(O)CNCCCl` (centres undefined), the T/C (dose: 2.1 mg/kg/injection, vehicle: carboxymethylcellulose (CMC), evaluated on day 12) is 122 % of control; the T/C (dose: 4.2 mg/kg/injection, vehicle: carboxymethylcellulose (CMC), evaluated on day 12) was 93 % of control [9 of 10 alive]; the T/C (dose: 8.5 mg/kg/injection, vehicle: carboxymethylcellulose (CMC), evaluated on day 12) is 69 % of control; the T/C (dose: 17.0 mg/kg/injection, vehicle: carboxymethylcellulose (CMC), evaluated on day 12) was 59 % of control.
For the compound `Cc1[nH]c(=O)[nH]c(=O)c1N(CCCl)CCCl`, the T/C (dose: 0.5 mg/kg/injection, vehicle: saline, evaluated on day 12) is 142 % of control; the T/C under setting [1] was 97 % of control; the T/C (dose: 1.5 mg/kg/injection, vehicle: saline, evaluated on day 12) was 69 % of control; the T/C under setting [2] was 63 % of control; the T/C (dose: 3.0 mg/kg/injection, vehicle: saline, evaluated on day 12) was 28 % of control.
As to `BrCc1cccc(CBr)c1`, the T/C is, setting by setting: (dose: 1.25 mg/kg/injection, vehicle: carboxymethylcellulose (CMC), evaluated on day 12) 115 % of control; (dose: 2.5 mg/kg/injection, vehicle: carboxymethylcellulose (CMC), evaluated on day 12) 136 % of control; (dose: 5.0 mg/kg/injection, vehicle: carboxymethylcellulose (CMC), evaluated on day 12) 109 % of control.
As for `CCOC(=O)COc1ccc(N(CCCl)CCCl)cc1`, the T/C is, setting by setting: (dose: 2.0 mg/kg/injection, vehicle: carboxymethylcellulose (CMC), evaluated on day 12) 81 % of control [9 of 10 alive]; (dose: 4.0 mg/kg/injection, vehicle: carboxymethylcellulose (CMC), evaluated on day 12) 75 % of control; (dose: 8.0 mg/kg/injection, vehicle: carboxymethylcellulose (CMC), evaluated on day 12) 56 % of control [9 of 10 alive]; (dose: 16.0 mg/kg/injection, vehicle: carboxymethylcellulose (CMC), evaluated on day 12) 43 % of control.
Take `N/C(=N\[N+](=O)[O-])N(CCO[N+](=O)[O-])N=O`: the T/C was 119 % of control [survivor count not shown] (dose: 15.0 mg/kg/injection, vehicle: carboxymethylcellulose (CMC), evaluation day not shown); 99 % of control [survivor count not shown] (dose: 30.0 mg/kg/injection, vehicle: carboxymethylcellulose (CMC), evaluation day not shown); 88 % of control [survivor count not shown] (dose: 60.0 mg/kg/injection, vehicle: carboxymethylcellulose (CMC), evaluation day not shown).
`O[C@H](CNCCBr)[C@@H](O)CNCCBr`: the T/C by setting is: under setting [1], 129 % of control; under setting [2], 106 % of control; (dose: 4.0 mg/kg/injection, vehicle: saline, evaluated on day 12) 97 % of control; (dose: 8.0 mg/kg/injection, vehicle: saline, evaluated on day 12) 56 % of control [9 of 10 alive].
